# System: NCI-55 cancer cell line panel
# Experiment: NCI single dose screening (10 µM), whole panel
# Assay type: cell-based, human
# Conditions: number of cell lines with GI % higher than 10%, single dose 10^−5 M
row,SMILES,Sensitive cell lines no.
1,CCCN1C(=O)/C(=N\NC(=O)c2oc3ccccc3c2C)c2ccccc21 [Compound 7b],19
2,Cc1c(C(=O)N/N=C2\C(=O)N(C)c3ccccc32)oc2ccccc12 [Compound 7a],7
3,COc1ccc2c(c1)/C(=N/NC(=O)c1oc3ccccc3c1C)C(=O)N2 [Compound 5d],54
4,Cc1c(C(=O)N/N=C2\C(=O)N(Cc3ccccc3)c3ccccc32)oc2ccccc12 [Compound 7d],20
5,Cc1c(C(=O)N/N=C2\C(=O)Nc3ccc(Br)cc32)oc2ccccc12 [Compound 5c],40
6,Cc1c(C(=O)N/N=C2\C(=O)Nc3ccc(F)cc32)oc2ccccc12 [Compound 5b],9
7,CCCN1C(=O)/C(=N\NC(=O)c2oc3ccccc3c2C)c2cc(Br)ccc21 [Compound 7g],6

# From article PMC8245078, “Development of novel benzofuran-isatin conjugates as potential antiproliferative agents with apoptosis inducing mechanism in Colon cancer” (Journal of Enzyme Inhibition and Medicinal Chemistry, 2021)
